What all share (test): two-hybrid; yeast strain AH109, pGBKT7 and pGADT7 vectors; growth on SD/-Ade-His-Leu-Trp at 30°C and colour development with X-α-Gal
For experiment [1], the target named is PsoSGT1, yeast two-hybrid fusion (Prunus sogdiana).
Experiment [2] concerns the target PsoRPM2 (P. sogdiana RESIST PATHOGEN M. incognita), yeast two-hybrid fusion (Prunus sogdiana).
Experiment [3] addresses PsoHSP90-1, yeast two-hybrid fusion (Prunus sogdiana).
The target of experiment [4] is PsoRAR1, yeast two-hybrid fusion (Prunus sogdiana).
Experiment [5] has as its target PsoHSP83, yeast two-hybrid fusion (Prunus sogdiana).
Experiment [6] addresses PsoHSP90-2, yeast two-hybrid fusion (Prunus sogdiana).

Results are given in words; binding and its absence hold for the method and conditions named. For part of these data: Binding can be weak; no strength is given.

As for “PsoHSP83, yeast two-hybrid fusion (from UniProt A0A290YK62)”, the binding entry in experiment [1] is “no binding”.

For “PsoSGT1, yeast two-hybrid fusion (from UniProt A0A290YK60)”, the binding entry in experiment [2] is “binds”.

As to “PsoRAR1, yeast two-hybrid fusion (from UniProt A0A290YK86)”, the binding result in experiment [3] and in experiment [1] was “binds” throughout.

In the case of “PsoHSP90-2, yeast two-hybrid fusion (from UniProt A0A290YK42)”, the binding entry in experiment [1] is reported as “no binding”.

For “PsoRPM2 (P. sogdiana RESIST PATHOGEN M. incognita), yeast two-hybrid fusion (from UniProt A0A167NLE0)”, the binding entry in experiment [3] is on record as “binds”; in experiment [4], “no binding”; in experiment [1] it was “binds”.

As for “PsoHSP90-1, yeast two-hybrid fusion (from UniProt A0A290YK21)”, the binding entry in experiment [5] is given as “no binding”; in experiment [6], “no binding”; in experiment [2] it was “binds”; in experiment [1], “binds”.

(Values after article PMC5671597.)
